Values of other authors as cited in patent publication US20210319872A1, “DRUG AND DEVICE COMBINATION PRODUCTS WITH IMPROVED SAFETY AND EFFICACY PROFILES” (priority 2016, published 2021).

Tested on: subjects
Settings: 10-, 15-, and 20-mg oral dose, 4 subjects, 24-hour period, pilot study, FIG. 31 inset

COc1ccc2c3c1O[C@H]1C(=O)CC[C@@]4(O)[C@@H](C2)N(C)CC[C@]314 [oxycodone, reference compound]
area under the effect curve (AUEC) for pupil response across the 3 doses: linearity
